Most of the hits are listed elsewhere, so they are rarer here than in the full data. Active and inactive are the calls of the source. Cut-off read from the data, not from the text of the source: active = growth inhibition above about 70%; inactive = the rest.
Experiments:
[1] = NCI Yeast Anticancer Drug Screen. Data for the wt1 strain (AID 149);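 note: 0% = growth of vehicle-treated wt1 cultures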; conditions: S. cerevisiae wt1 strain (SPY 50644) growth inhibition, stronger effect = higher value
How it was run: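 The wt1 strain was treated with compounds, and growth was compared with vehicle-treated cultures to give inhibition.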

[2] = NCI Yeast Anticancer Drug Screen. Data for the rad50EPP+ strain (AID 151);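 note: 0% = growth of vehicle-treated control cultures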; conditions: S. cerevisiae rad50 mutant strain, stronger effect = higher value
How it was run: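 Exposing the rad50EPP+ strain to each compound, growth was compared with vehicle-only cultures to give inhibition.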

[3] = NCI Yeast Anticancer Drug Screen. Data for the mgt1 strain (AID 153); conditions: S. cerevisiae mgt1 mutant growth inhibition, stronger effect = higher value
How it was run: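 Genetically defined yeast (mgt1) treated with compound; inhibition of growth expressed against vehicle-treated controls.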

[4] = NCI Yeast Anticancer Drug Screen. Data for the rad14 strain (AID 159);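 note: 0% = growth of vehicle-treated control cultures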; conditions: S. cerevisiae rad14 strain growth inhibition, stronger effect = higher value
How it was run: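 Readout: yeast growth inhibition, referenced to vehicle-only cultures. Strain bears a defined alteration in DNA damage repair.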

[5] = NCI Yeast Anticancer Drug Screen. Data for the CLN2oe strain (AID 163);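 note: 0% = growth of vehicle-only control cultures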; conditions: S. cerevisiae CLN2oe strain, stronger effect = higher value
How it was run: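 Values reflect how much compound exposure reduced yeast growth, referenced to vehicle-exposed cells. Assay organism is a strain with a defined genetic change affecting cell-cycle control.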

[6] = NCI Yeast Anticancer Drug Screen. Data for the wt2 strain (AID 169);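 note: 0% = growth of vehicle-treated yeast cultures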; conditions: S. cerevisiae wt2 strain growth inhibition, stronger effect = higher value
How it was run: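 Values express reduction in yeast growth under compound treatment, referenced to vehicle-treated cells.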

[7] = NCI Yeast Anticancer Drug Screen. Data for the mlh1 strain (AID 171);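 note: 0% = growth of vehicle-treated control cultures of the same strain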; conditions: S. cerevisiae mlh1 strain growth inhibition, stronger effect = higher value
How it was run: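 Steps: expose the defined-mutant yeast strain to compound; expose a parallel culture to vehicle; measure growth; express compound effect as inhibition relative to the vehicle culture.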

[8] = NCI Yeast Anticancer Drug Screen. Data for the sgs1 strain (AID 173);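 note: 0% = growth of vehicle-only control cultures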; conditions: S. cerevisiae sgs1 mutant, stronger effect = higher value
How it was run: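 Treat defined-mutant yeast with compound; measure growth; calculate inhibition relative to vehicle-treated cells.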

[9] = NCI Yeast Anticancer Drug Screen. Data for the rad18 strain (AID 177); conditions: S. cerevisiae rad18 mutant growth inhibition, stronger effect = higher value
How it was run: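 A genetically defined yeast mutant impaired in DNA damage repair was treated with test compounds, then its growth was measured against cultures receiving vehicle alone.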

[10] = NCI Yeast Anticancer Drug Screen. Data for the rad52 strain (AID 147);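 note: 0% = growth of vehicle-treated control cultures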; conditions: S. cerevisiae rad52 mutant growth inhibition, stronger effect = higher value
How it was run: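 Screen used a yeast mutant impaired in DNA repair. After compound exposure, growth was measured. Values reflect inhibition compared with vehicle-treated cells.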

Measured: growth inhibition

CC(C)=CCCC(C)CCOC(=O)Nc1ccccc1 (stereo not given)
inactive: [1]; at 1.2 µM -4% | [1]; at 3.7 µM -4% | [1]; at 11.0 µM -7% | [1]; at 33.0 µM -12% | [1]; at 100.0 µM -13% | [2]; at 1.2 µM -7% | [2]; at 3.7 µM 8% | [2]; at 11.0 µM 13% | [2]; at 33.0 µM 30% | [2]; at 100.0 µM 51% | [3]; at 1.2 µM -3% | [3]; at 3.7 µM -1% | [3]; at 11.0 µM -5% | [3]; at 33.0 µM -8% | [3]; at 100.0 µM -5% | [4]; at 1.2 µM -3% | [4]; at 3.7 µM -5% | [4]; at 11.0 µM -4% | [4]; at 33.0 µM 0% | [4]; at 100.0 µM 2% | [5]; at 1.2 µM -2% | [5]; at 3.7 µM -4% | [5]; at 11.0 µM -7% | [5]; at 33.0 µM -13% | [5]; at 100.0 µM -16% | [6]; at 1.2 µM -3% | [6]; at 3.7 µM -5% | [6]; at 11.0 µM -6% | [6]; at 33.0 µM -9% | [6]; at 100.0 µM -11% | [7]; at 1.2 µM -2% | [7]; at 3.7 µM -1% | [7]; at 11.0 µM 2% | [7]; at 33.0 µM 3% | [7]; at 100.0 µM 6% | [8]; at 1.2 µM -3% | [8]; at 3.7 µM 0% | [8]; at 11.0 µM 1% | [8]; at 33.0 µM 3% | [8]; at 100.0 µM 8% | [9]; at 1.2 µM -4% | [9]; at 3.7 µM -1% | [9]; at 11.0 µM 2% | [9]; at 33.0 µM 3% | [9]; at 100.0 µM 6%

Cc1cc(N2CCN(C)CC2)n2nc(-c3ccc(Cl)cc3)nc2n1
inactive: [10]; at 1.2 µM -2% | [10]; at 3.7 µM -2% | [10]; at 11.0 µM -4% | [10]; at 33.0 µM -2% | [10]; at 100.0 µM -4% | [1]; at 1.2 µM -2% | [1]; at 3.7 µM -2% | [1]; at 11.0 µM 0% | [1]; at 33.0 µM -3% | [1]; at 100.0 µM -4% | [2]; at 1.2 µM -1% | [2]; at 3.7 µM -1% | [2]; at 11.0 µM 1% | [2]; at 33.0 µM 2% | [2]; at 100.0 µM 0% | [3]; at 1.2 µM -2% | [3]; at 3.7 µM -19% | [3]; at 11.0 µM -5% | [3]; at 33.0 µM -8% | [3]; at 100.0 µM -11% | [4]; at 1.2 µM -4% | [4]; at 3.7 µM -3% | [4]; at 11.0 µM -2% | [4]; at 33.0 µM -1% | [4]; at 100.0 µM 0% | [5]; at 1.2 µM -3% | [5]; at 3.7 µM 0% | [5]; at 11.0 µM 1% | [5]; at 33.0 µM 0% | [5]; at 100.0 µM 0% | [6]; at 1.2 µM -3% | [6]; at 3.7 µM -4% | [6]; at 11.0 µM -3% | [6]; at 33.0 µM -3% | [6]; at 100.0 µM -4% | [7]; at 1.2 µM -3% | [7]; at 3.7 µM -1% | [7]; at 11.0 µM 2% | [7]; at 33.0 µM -2% | [7]; at 100.0 µM -23% | [8]; at 1.2 µM -1% | [8]; at 3.7 µM -1% | [8]; at 11.0 µM 1% | [8]; at 33.0 µM -3% | [8]; at 100.0 µM -2% | [9]; at 1.2 µM 0% | [9]; at 3.7 µM -2% | [9]; at 11.0 µM -3% | [9]; at 33.0 µM -14% | [9]; at 100.0 µM -20%

Cc1ccc(S(=O)(=O)Oc2ccc(C(C)(C)C)cc2)cc1
inactive: [10]; at 1.2 µM 1% | [10]; at 3.7 µM 5% | [10]; at 11.0 µM 10% | [10]; at 33.0 µM 2% | [10]; at 100.0 µM 11% | [1]; at 1.2 µM -2% | [1]; at 3.7 µM -6% | [1]; at 11.0 µM -10% | [1]; at 33.0 µM -13% | [1]; at 100.0 µM -15% | [2]; at 1.2 µM -1% | [2]; at 3.7 µM 9% | [2]; at 11.0 µM 18% | [2]; at 33.0 µM 13% | [2]; at 100.0 µM 20% | [3]; at 1.2 µM -5% | [3]; at 3.7 µM -3% | [3]; at 11.0 µM -7% | [3]; at 33.0 µM -12% | [3]; at 100.0 µM -11% | [4]; at 1.2 µM 1% | [4]; at 3.7 µM 6% | [4]; at 11.0 µM 6% | [4]; at 33.0 µM -5% | [4]; at 100.0 µM -4% | [5]; at 1.2 µM -2% | [5]; at 3.7 µM -7% | [5]; at 11.0 µM -13% | [5]; at 33.0 µM -20% | [5]; at 100.0 µM -20% | [6]; at 1.2 µM -3% | [6]; at 3.7 µM -9% | [6]; at 11.0 µM -8% | [6]; at 33.0 µM -6% | [6]; at 100.0 µM -15% | [7]; at 1.2 µM -3% | [7]; at 3.7 µM 1% | [7]; at 11.0 µM 1% | [7]; at 33.0 µM -7% | [7]; at 100.0 µM -2% | [8]; at 1.2 µM -2% | [8]; at 3.7 µM 19% | [8]; at 11.0 µM -7% | [8]; at 33.0 µM 1% | [8]; at 100.0 µM 4% | [9]; at 1.2 µM -2% | [9]; at 3.7 µM 3% | [9]; at 11.0 µM 1% | [9]; at 33.0 µM -5% | [9]; at 100.0 µM 8%

From PubChem BioAssay (NCI)
